The values that follow come from paper doi:10.1101/2023.07.25.550481.

Protein sequences, listed by entry. Tags and fused reporters are not part of them.
UniProt P10074, whole entry R614A: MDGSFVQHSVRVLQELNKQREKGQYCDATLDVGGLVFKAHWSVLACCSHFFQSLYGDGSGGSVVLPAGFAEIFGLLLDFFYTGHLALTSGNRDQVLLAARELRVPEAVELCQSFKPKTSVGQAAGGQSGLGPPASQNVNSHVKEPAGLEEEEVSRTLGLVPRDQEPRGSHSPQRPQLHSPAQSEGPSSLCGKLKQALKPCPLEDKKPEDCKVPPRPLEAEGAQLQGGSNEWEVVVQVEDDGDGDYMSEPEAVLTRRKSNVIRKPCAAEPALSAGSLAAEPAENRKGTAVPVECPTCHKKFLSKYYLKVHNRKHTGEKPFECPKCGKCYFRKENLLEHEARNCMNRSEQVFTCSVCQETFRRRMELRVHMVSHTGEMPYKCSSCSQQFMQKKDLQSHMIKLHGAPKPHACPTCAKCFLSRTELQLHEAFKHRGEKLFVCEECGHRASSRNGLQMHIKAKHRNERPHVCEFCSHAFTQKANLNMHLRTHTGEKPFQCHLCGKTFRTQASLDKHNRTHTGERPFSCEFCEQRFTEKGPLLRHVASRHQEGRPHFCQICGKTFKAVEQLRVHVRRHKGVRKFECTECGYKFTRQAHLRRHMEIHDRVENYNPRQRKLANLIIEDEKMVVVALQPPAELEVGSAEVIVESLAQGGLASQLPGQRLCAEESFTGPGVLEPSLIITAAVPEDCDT
UniProt P10074, whole entry R611A/R614A: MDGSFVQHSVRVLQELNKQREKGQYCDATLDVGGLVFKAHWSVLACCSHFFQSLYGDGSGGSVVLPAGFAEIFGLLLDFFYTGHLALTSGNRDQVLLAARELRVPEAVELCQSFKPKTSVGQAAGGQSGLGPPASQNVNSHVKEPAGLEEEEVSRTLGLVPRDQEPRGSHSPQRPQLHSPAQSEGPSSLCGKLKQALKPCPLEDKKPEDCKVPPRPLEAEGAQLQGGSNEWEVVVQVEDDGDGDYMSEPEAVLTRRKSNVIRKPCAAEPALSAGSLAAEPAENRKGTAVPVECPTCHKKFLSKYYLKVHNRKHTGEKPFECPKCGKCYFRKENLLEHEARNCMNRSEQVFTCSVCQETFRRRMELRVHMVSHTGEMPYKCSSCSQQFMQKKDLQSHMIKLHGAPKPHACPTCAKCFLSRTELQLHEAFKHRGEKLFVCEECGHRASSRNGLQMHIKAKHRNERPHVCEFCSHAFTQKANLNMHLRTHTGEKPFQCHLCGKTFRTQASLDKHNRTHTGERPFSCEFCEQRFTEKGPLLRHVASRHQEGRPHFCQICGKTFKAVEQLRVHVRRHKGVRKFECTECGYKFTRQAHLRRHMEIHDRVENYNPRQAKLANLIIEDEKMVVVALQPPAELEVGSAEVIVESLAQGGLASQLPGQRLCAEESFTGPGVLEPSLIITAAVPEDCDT
UniProt P10074, whole entry H568A: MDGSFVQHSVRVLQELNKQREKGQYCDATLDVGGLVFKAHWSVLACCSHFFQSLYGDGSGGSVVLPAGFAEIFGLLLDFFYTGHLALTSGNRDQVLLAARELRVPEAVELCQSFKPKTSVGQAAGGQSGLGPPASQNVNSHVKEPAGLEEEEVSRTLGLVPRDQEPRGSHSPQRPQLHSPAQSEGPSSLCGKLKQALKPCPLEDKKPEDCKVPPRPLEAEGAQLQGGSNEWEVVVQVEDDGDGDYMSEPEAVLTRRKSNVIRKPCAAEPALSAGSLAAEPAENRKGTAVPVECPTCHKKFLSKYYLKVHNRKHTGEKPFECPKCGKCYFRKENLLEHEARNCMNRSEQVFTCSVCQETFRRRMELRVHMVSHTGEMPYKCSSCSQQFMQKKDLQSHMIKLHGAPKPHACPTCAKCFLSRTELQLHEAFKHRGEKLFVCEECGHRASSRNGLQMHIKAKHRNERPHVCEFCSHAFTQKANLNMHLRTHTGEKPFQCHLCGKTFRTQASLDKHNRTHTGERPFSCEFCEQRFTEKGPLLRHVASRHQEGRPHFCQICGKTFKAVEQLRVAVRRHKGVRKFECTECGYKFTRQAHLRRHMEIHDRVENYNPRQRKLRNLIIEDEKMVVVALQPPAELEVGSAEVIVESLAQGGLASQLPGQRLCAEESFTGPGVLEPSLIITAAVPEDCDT
UniProt P10074, whole entry H596A: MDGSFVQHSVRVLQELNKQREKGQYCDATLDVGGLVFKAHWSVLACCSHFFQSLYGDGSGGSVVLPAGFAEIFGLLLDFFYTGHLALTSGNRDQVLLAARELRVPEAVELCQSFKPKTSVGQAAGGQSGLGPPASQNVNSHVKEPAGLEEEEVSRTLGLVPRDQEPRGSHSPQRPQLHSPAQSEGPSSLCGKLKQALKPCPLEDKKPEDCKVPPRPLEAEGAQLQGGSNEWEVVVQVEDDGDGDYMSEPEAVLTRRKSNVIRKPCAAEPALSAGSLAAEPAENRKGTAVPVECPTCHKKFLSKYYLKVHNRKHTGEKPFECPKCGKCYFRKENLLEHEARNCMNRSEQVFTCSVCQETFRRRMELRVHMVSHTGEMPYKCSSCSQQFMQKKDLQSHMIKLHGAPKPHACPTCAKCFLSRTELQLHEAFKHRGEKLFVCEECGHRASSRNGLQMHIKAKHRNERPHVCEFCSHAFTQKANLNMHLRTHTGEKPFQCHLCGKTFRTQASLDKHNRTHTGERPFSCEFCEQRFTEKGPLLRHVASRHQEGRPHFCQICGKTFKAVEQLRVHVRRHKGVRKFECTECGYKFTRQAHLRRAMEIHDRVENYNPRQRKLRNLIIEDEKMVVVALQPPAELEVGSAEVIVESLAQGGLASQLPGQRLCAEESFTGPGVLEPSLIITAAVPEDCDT
UniProt P10074, whole entry R611A: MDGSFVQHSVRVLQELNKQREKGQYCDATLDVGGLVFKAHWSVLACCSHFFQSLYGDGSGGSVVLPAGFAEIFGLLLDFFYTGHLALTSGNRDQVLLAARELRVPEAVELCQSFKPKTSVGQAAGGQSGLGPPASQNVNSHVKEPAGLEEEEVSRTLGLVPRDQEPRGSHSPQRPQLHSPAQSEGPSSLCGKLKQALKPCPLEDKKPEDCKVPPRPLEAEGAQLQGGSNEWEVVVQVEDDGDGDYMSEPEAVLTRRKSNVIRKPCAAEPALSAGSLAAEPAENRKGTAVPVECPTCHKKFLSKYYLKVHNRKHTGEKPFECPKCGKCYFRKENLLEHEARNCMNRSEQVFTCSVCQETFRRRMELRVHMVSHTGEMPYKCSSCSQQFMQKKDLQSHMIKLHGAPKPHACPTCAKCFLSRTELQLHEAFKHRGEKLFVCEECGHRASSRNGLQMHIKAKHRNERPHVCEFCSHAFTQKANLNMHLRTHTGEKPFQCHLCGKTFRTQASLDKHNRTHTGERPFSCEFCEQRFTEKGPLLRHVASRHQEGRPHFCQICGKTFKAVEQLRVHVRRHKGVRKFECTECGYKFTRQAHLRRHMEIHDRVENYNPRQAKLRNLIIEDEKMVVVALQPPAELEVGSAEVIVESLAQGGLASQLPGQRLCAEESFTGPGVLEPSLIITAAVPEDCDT

Test in all cases: pull-down
One series concerns the target FLAG-ZBTB48 R614A (UniProt P10074). The settings on record: desthiobiotin-dATP; protein in a lysate after overexpression.
For the next series, the target named is FLAG-ZBTB48 R611A/R614A (UniProt P10074). The settings on record: desthiobiotin-dATP; protein in a lysate after overexpression.
Series [1] has as its target FLAG-ZBTB48 ZnF10 mut H568A (UniProt P10074). The settings on record: desthiobiotin-dATP; protein in a lysate after overexpression.
Series [2] deals with FLAG-ZBTB48 ZnF11 mut H596A (UniProt P10074). As to conditions: desthiobiotin-dATP; protein in a lysate after overexpression.
The target of a further series is FLAG-ZBTB48 WT (UniProt P10074). The settings on record: desthiobiotin-dATP; protein in a lysate after overexpression.
The target in a further series is ZBTB48 (endogenous) (UniProt P10074). The settings on record: desthiobiotin-dATP; protein in an extract.
For another series, the target named is FLAG-ZBTB48 R611A (UniProt P10074). As to conditions: desthiobiotin-dATP; protein in a lysate after overexpression.

Results from cells or extracts need not show a direct contact. Negatives hold for the conditions tested. For part of these data: For at least one entry, the source does not settle the construct or the ends of the probe. For part of these data: At least one verdict rests on a figure or table, not on a statement of the authors. For part of these data: A weaker result is weaker than the reference pair of the same experiment.

For “TTAGGGTTAGGGTTAGGGTTAGGGTTAGGGTTAGGGTTAGGGTTAGGGTTAGGGTTAGGG / AACCCTAACCCTAACCCTAACCCTAACCCTAACCCTAACCCTAACCCTAACCCTAACCCT [telomeric TTAGGG]”, the binding result is “binds more weakly” with FLAG-ZBTB48 R614A; “no binding” with FLAG-ZBTB48 R611A/R614A; “binds” in series [1]; “no binding” in series [2]; “binds” with FLAG-ZBTB48 WT; “binds” with ZBTB48 (endogenous).

For “CTCACTTGTTTCTTTGCATGTTGGCTTAGCTTGGCGGGCTCCCAACTGGTGACTGGTTAG / AGCTAACCAGTCACCAGTTGGGAGCCCGCCAAGCTAAGCCAACATGCAAAGAAACAAGTG [CIITA pIII probe 5]”, in the series with ZBTB48 (endogenous), the binding result is “no binding”.

As for “CTTAAGGGAGTGTGGTAAAATTAGAGGGTGTTCAGAAACAGAAATCTGACCGCTTGGGGC / AGGCCCCAAGCGGTCAGATTTCTGTTTCTGAACACCCTCTAATTTTACCACACTCCCTTA [CIITA pIII probe 3]”, in the series with ZBTB48 (endogenous), the binding result is reported as “binds”.

With “TTGTTTCTTTGCATGTTGGCTTAGCTTGGCTTGTTTCTTTGCATGTTGGCTTAGCTTGGC / AAGCCAAGCTAAGCCAACATGCAAAGAAACAAGCCAAGCTAAGCCAACATGCAAAGAAAC [CIITA probe f (text) = probe g in Table S6]”, in the series with ZBTB48 (endogenous), the binding result is “no binding”.

For the sequence “CTTAAGGGAGTGTGGTAAAATTAGAGGGTGCTTAAGGGAGTGTGGTAAAATTAGAGGGTG / AGCACCCTCTAATTTTACCACACTCCCTTAAGCACCCTCTAATTTTACCACACTCCCTTA [CIITA probe b]”, the binding result with ZBTB48 (endogenous) is given as “binds”.

As to “GTTTTTTTGATGATCCCTCACTTGTTTCTTGTTTTTTTGATGATCCCTCACTTGTTTCTT / ACAAGAAACAAGTGAGGGATCATCAAAAAAACAAGAAACAAGTGAGGGATCATCAAAAAA [CIITA probe e (text) = probe f in Table S6]”, the binding result in the series with ZBTB48 (endogenous) is “binds”.

In the case of “TTAATTTCAGAGGTGTGGGGAGGGCTTAAGGTTAATTTCAGAGGTGTGGGGAGGGCTTAAGG / AACCTTAAGCCCTCCCCACACCTCTGAAATTAACCTTAAGCCCTCCCCACACCTCTGAAATT [CIITA probe a]”, the binding result with ZBTB48 (endogenous) was “no binding”.

Regarding “CTTAAGGGAGTGTGGCTTAAGGGAGTGTGGCTTAAGGGAGTGTGGCTTAAGGGAGTGTGG / AGCCACACTCCCTTAAGCCACACTCCCTTAAGCCACACTCCCTTAAGCCACACTCCCTTA [CIITA probe b.1]”, the binding result with FLAG-ZBTB48 R614A is recorded as “no binding”; with FLAG-ZBTB48 R611A/R614A it was “no binding”; in series [1], “binds more weakly”; in series [2], “no binding”; in the series with FLAG-ZBTB48 R611A, “no binding”; in the series with FLAG-ZBTB48 WT it was “binds”. Besides, in the series with ZBTB48 (endogenous), the binding result is given as “binds”.

For the sequence “ATCCCTCACTTGTTTCTTATCCCTCACTTGTTTCTTATCCCTCACTTGTTTCTT / ATAAGAAACAAGTGAGGGATAAGAAACAAGTGAGGGATAAGAAACAAGTGAGGG [CIITA probe e.3 (text) = f.3 in Table S6]”, the binding result with ZBTB48 (endogenous) is “no binding”.

As for “CTGGGCATCCGAAGGCATCCTTGGGGAAGCTGAGGGCACGAGGAGGGGCTGCCAGACTCC / AGGGAGTCTGGCAGCCCCTCCTCGTGCCCTCAGCTTCCCCAAGGATGCCTTCGGATGCCC [CIITA pIII probe 7]”, the binding result in the series with ZBTB48 (endogenous) is given as “no binding”.

As to “GTGAGTGTGAGTGTGAGTGTGAGTGTGAGTGTGAGTGTGAGTGTGAGTGTGAGTGTGAGT / ACACTCACACTCACACTCACACTCACACTCACACTCACACTCACACTCACACTCACACTC [GTGAGT scramble control]”, the binding result in the series with FLAG-ZBTB48 WT and with ZBTB48 (endogenous) was “no binding” in each case.

In the case of “TTCCCCCAACAGACTTTCTGTGCAACTTTCTGTCTTCACCAAATTCAGTCCACAGTAAGG / AACCTTACTGTGGACTGAATTTGGTGAAGACAGAAAGTTGCACAGAAAGTCTGTTGGGGG [CIITA pIII probe 1]”, in the series with ZBTB48 (endogenous), the binding result is recorded as “no binding”.

For the sequence “GTCCACAGTAAGGAAGTGAAATTAATTTCAGAGGTGTGGGGAGGGCTTAAGGGAGTGTGG / ACCCACACTCCCTTAAGCCCTCCCCACACCTCTGAAATTAATTTCACTTCCTTACTGTGG [CIITA pIII probe 2]”, the binding result with ZBTB48 (endogenous) was “binds”.

On to “GTAAAATTAGAGGGTGGTAAAATTAGAGGGTGGTAAAATTAGAGGGTG / ACCACCCTCTAATTTTACCACCCTCTAATTTTACCACCCTCTAATTTT [CIITA probe b.3]”, for which the binding result in the series with ZBTB48 (endogenous) is given as “no binding”.

As to “GTGTGGTAAAATTAGGTGTGGTAAAATTAGGTGTGGTAAAATTAGGTGTGGTAAAATTAG / ACCTAATTTTACCACACCTAATTTTACCACACCTAATTTTACCACACCTAATTTTACCAC [CIITA probe b.2]”, the binding result in the series with ZBTB48 (endogenous) is reported as “no binding”.

“TTAGAGGGTGTTCAGAAACAGAAATCTGACCGCTTGGG / AACCCAAGCGGTCAGATTTCTGTTTCTGAACACCCTCT [CIITA probe c]”: the binding result with ZBTB48 (endogenous) is “no binding”.

Turning to “CTGACCGCTTGGGGCCACCTTGCAGGGAGAGTTTTTTTGATGATCCCTCACTTGTTTCTT / AGAAGAAACAAGTGAGGGATCATCAAAAAAACTCTCCCTGCAAGGTGGCCCCAAGCGGTC [CIITA pIII probe 4]”, the binding result with ZBTB48 (endogenous) is “binds”.

“CTTGGGGCCACCTTGCAGGGAGAGTTTTTTCTTGGGGCCACCTTGCAGGGAGAGTTTTTT / AGAAAAAACTCTCCCTGCAAGGTGGCCCCAAGAAAAAACTCTCCCTGCAAGGTGGCCCCA [CIITA probe d (text) = probe e in Table S6]”: the binding result with ZBTB48 (endogenous) is “no binding”.

In the case of “CTGCCAGACTCCGGGAGCTGCTGCCTGGCTGGGATTCCTACACAATGCGTTGCCTGGCTC / AGGAGCCAGGCAACGCATTGTGTAGGAATCCCAGCCAGGCAGCAGCTCCCGGAGTCTGGC [CIITA pIII probe 8]”, the binding result in the series with ZBTB48 (endogenous) is listed as “no binding”.

As to “TTGATGATCCCTCACTTGATGATCCCTCACTTGATGATCCCTCACTTGATGATCCCTCAC / AAGTGAGGGATCATCAAGTGAGGGATCATCAAGTGAGGGATCATCAAGTGAGGGATCATC [CIITA probe e.2 (text) = f.2 in Table S6]”, the binding result in the series with FLAG-ZBTB48 R611A/R614A was “no binding”; in series [1], “no binding”; in series [2] it was “no binding”; with FLAG-ZBTB48 R611A it was “binds more weakly”; in the series with FLAG-ZBTB48 WT, “binds”; with ZBTB48 (endogenous), “binds”.

For the sequence “GTTTTTTTGATGATCGTTTTTTTGATGATCGTTTTTTTGATGATCGTTTTTTTGATGATC / ACGATCATCAAAAAAACGATCATCAAAAAAACGATCATCAAAAAAACGATCATCAAAAAA [CIITA probe e.1 (text) = f.1 in Table S6]”, the binding result with ZBTB48 (endogenous) is reported as “no binding”.

Consider “GTGACTGGTTAGTGATGAGGCTAGTGATGAGGCTGTGTGCTTCTGAGCTGGGCATCCGAA / ACTTCGGATGCCCAGCTCAGAAGCACACAGCCTCATCACTAGCCTCATCACTAACCAGTC [CIITA pIII probe 6]”, for which the binding result in the series with ZBTB48 (endogenous) is listed as “no binding”.
